Measured values: PubChem BioAssay AID504834 (National Center for Advancing Translational Sciences (NCATS), 2011)
The whole screen tested about 320,000 compounds, of which about 22,000 (6.9%) were called active. The shares of active, inactive and inconclusive entries below differ from those in the screen. Calls follow the shape of the dose curve; as a rule, active = well fitted inhibition curve with a large enough effect; inconclusive = small, poorly fitted or top-dose-only effect, or another doubt; inactive = no such curve, though single readings can be large or run the other way. Potencies of inconclusive entries are doubtful fits and often do not repeat.
% is scaled to controls: 0 for no effect and ±100 for the full control effect; potency is read from the fitted curve at half-maximal effect.

Experiment: Primary qHTS for delayed death inhibitors of the malarial parasite plastid, 96 hour incubation
Settings: P. falciparum luciferase reporter growth; series mostly up to 28.7 µM; activity change, negative = inhibition: at the top concentration
Method in brief: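 Compounds incubated with erythrocytes infected by luciferase-expressing P. falciparum (2% hematocrit, 0.05% parasitemia final) for 96 hours, 37 C in 5% CO2. Growth inhibition scored as decreased luciferase luminescence.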
For `COc1ccc(-c2nnc3sc(-c4ccc(Br)o4)nn23)cc1OC`, the Potency was inconclusive: 8.28 µM [inhibitor, partial curve, poor fit].
With `COc1ccc(OC)c(C2=Nn3c(nnc3-c3cc(OC)c(OC)c(OC)c3)SC2)c1` the “activity change, negative = inhibition” value was inactive: 32.6%.
With `COC(=O)c1cccc(S(=O)(=O)N2CCC(NC(=O)NC34CC5CC(CC(C5)C3)C4)CC2)c1` the Potency was inconclusive: 13.1 µM [inhibitor, single point].
For `O=C(NNC(=S)NC(=O)c1cccnc1)c1ccccc1`, the Potency was inconclusive: 1.65 µM [inhibitor, full curve, poor fit].
With `Cc1ccc(-c2nc(CN(C)Cc3cccc4cnccc34)c(C)o2)s1` the Potency was active: 13.1 µM.
In the case of `CCN(CC)c1ccc(/C=N/NS(=O)(=O)c2ccc(CNC(C)=O)cc2)cc1`, the “activity change, negative = inhibition” value was inactive: 9.92%.
For `CCn1cc(C(=O)N[C@H](C)c2ccccc2)c(=O)c2cc(F)c(N3CCN(C)CC3)cc21`, the Potency was active: 11.7 µM.
In the case of `O=C(Nc1cc(C(F)(F)F)ccc1N1CCCCC1)c1ccc(Br)o1`, the Potency was inconclusive: 0.037 µM [inhibitor, full curve, poor fit].
For `CN(C)CC(C)(C)CNC(=O)C1CCN(CCCc2ccccc2)CC1`, the Potency was inconclusive: 9.28 µM [inhibitor, partial curve, poor fit].
For `CCOC(=O)C1CCCN(S(=O)(=O)c2cc(Br)cc3c2N(C(=O)C2CC2)CC3)C1` (centres undefined), the “activity change, negative = inhibition” value was inactive: 35.8%.
In the case of `CCCCn1c(O)c(C=NCc2ccc3c(c2)OCO3)c(=O)[nH]c1=O`, the Potency was inconclusive: 0.828 µM [inhibitor, partial curve, poor fit].
In the case of `CCOc1ccc(Cl)cc1CNCCc1ccccc1F`, the Potency was inconclusive: 18.5 µM [inhibitor, single point].
With `COC(=O)C1=CN(Cc2cccs2)C=C(C(=O)OC)C1c1ccc(OC)cc1OC` the “activity change, negative = inhibition” value was inactive: 30.1%.
With `CCCCSc1nc2c(c(=O)[nH]c(=O)n2C)n1CCc1ccccc1` the Potency was inconclusive: 8.28 µM [inhibitor, partial curve].
With `Cc1cc(C)cc(NC(=O)Cn2nnc(C(=O)NCc3ccccc3Cl)c2N)c1` the “activity change, negative = inhibition” value was inactive: 30.2%.
For `O=C(COc1ccc([N+](=O)[O-])cc1)NCc1ccccc1`, the Potency was inconclusive: 10.4 µM [inhibitor, partial curve, poor fit].
For `COc1ccc(N2CCN(c3nc4ccccn4c(=O)c3/C=C(\C#N)S(=O)(=O)c3ccccc3)CC2)cc1`, the Potency was inconclusive: 5.86 µM [inhibitor, partial curve].
For `COc1ccc(/C=C/C(=O)c2ccc(NC3=NCCCS3)cc2)cc1OC`, the Potency was inconclusive: 13.1 µM [inhibitor, single point].
With `CCOc1ccc(-c2cc(CCCC(=O)NCc3ccc(C)cc3)no2)cc1` the Potency was inconclusive: 3.7 µM [inhibitor, partial curve, poor fit].
For `CN(C)CCCNc1oc(/C=C/c2cccs2)nc1S(=O)(=O)c1ccccc1`, the Potency was inconclusive: 18.5 µM [inhibitor, single point].
In the case of `COc1ccccc1NS(=O)(=O)c1cc(NC(=O)CC(C)(C)C)ccc1N1CCOCC1`, the Potency was inconclusive: 14.7 µM [inhibitor, partial curve, poor fit].
With `CCN(Cc1ccccc1)C(=O)c1cc2c(=O)oc3ccc(C)cc3c2s1` the Potency was active: 4.65 µM.
With `C/C(=N/NS(=O)(=O)c1ccc(C)cc1C)c1c[nH]c2ccccc12` the “activity change, negative = inhibition” value was inactive: -24.5%.
In the case of `COc1ccc2nc(NC(=O)CSC(C)C(=O)Nc3cc(C)on3)sc2c1` (centres undefined), the Potency was inconclusive: 18.5 µM [inhibitor, single point].
With `CCN(CC)C(=O)Cn1cc(/C=C2\C(=O)NC(=O)N(c3ccccc3F)C2=O)c2ccccc21` the Potency was inconclusive: 10.4 µM [inhibitor, partial curve].
For `O=C(NCc1cccnc1)c1ccc(CS(=O)(=O)c2ccc(Br)cc2)o1`, the Potency was inconclusive: 18.5 µM [inhibitor, single point].
In the case of `CCOC(=O)C1CN(c2cc3c(cc2F)c(=O)c(C(=O)O)cn3CC)OC1C(=O)OCC` (centres undefined), the “activity change, negative = inhibition” value was inactive: -26.6%.
For `CC(=O)NC(=S)Nc1cccc([N+](=O)[O-])c1`, the “activity change, negative = inhibition” value was inactive: 15.3%.
In the case of `Cc1onc(-c2ccccc2)c1C(=O)N(C)CCc1ccccn1`, the Potency was inconclusive: 4.15 µM [inhibitor, partial curve, poor fit].
For `CCCCN(C(=O)c1cc(-c2ccco2)nc2ccccc12)c1c(N)n(CCC)c(=O)[nH]c1=O`, the Potency was inconclusive: 10.4 µM [inhibitor, single point].
For `CC(C)OC(=O)c1cn(-c2ccccc2)nc1-c1ccc2c(c1)OCCO2`, the Potency was inconclusive: 1.31 µM [inhibitor, single point].
In the case of `CNC(C)C#Cc1ccc2c(=O)c3c(OC)cccc3oc2c1` (centres undefined), the Potency was inconclusive: 18.5 µM [inhibitor, single point].
In the case of `Cc1ccc(C)c(S(=O)(=O)ON2C(=O)c3ccccc3C2=O)c1`, the Potency was inconclusive: 1.65 µM [inhibitor, partial curve, poor fit].
For `CCn1c(SCC(=O)N/N=C/c2ccccc2OCC(=O)O)nnc1-c1ccc(C)cc1`, the “activity change, negative = inhibition” value was inactive: 31.7%.
In the case of `CC(C)(C)N1CC(c2nc3ccccc3n2CCOc2ccccc2)CC1=O` (centres undefined), the Potency was active: 5.86 µM.
In the case of `COc1ccc(C(CC(=O)NC(C)(C)C)n2cccc2)cc1` (centres undefined), the Potency was inconclusive: 1.04 µM [inhibitor, full curve].
With `Cc1ccc2c(C)c(C(=O)N(Cc3ccc(N(C)C)cc3)C3CCS(=O)(=O)C3)oc2c1` (centres undefined) the Potency was inconclusive: 10.4 µM [inhibitor, partial curve].
For `O=C1Cc2cc(NS(=O)(=O)c3cc(F)ccc3F)cc3c2N1CCC3`, the Potency was inconclusive: 13.1 µM [inhibitor, partial curve, poor fit].
In the case of `COc1cc(NC(=O)Cn2ncc3c2-c2ccccc2OC3)cc(OC)c1OC`, the Potency was inconclusive: 3.29 µM [inhibitor, full curve].
For `Cc1ccc(-c2c[n+](CC(=O)Nc3nc(-c4ccccc4)cs3)c3n2CCC3)cc1`, the Potency was inconclusive: 18.5 µM [inhibitor, single point].
In the case of `O=C(NCCN1CCCCC1)Nc1ccc(Cl)cc1`, the Potency was inconclusive: 13.1 µM [inhibitor, partial curve, poor fit].
In the case of `COc1ccc2[nH]c(=O)c(C3c4cc(OC)c(OC)cc4CCN3C(=O)c3ccco3)cc2c1` (centres undefined), the “activity change, negative = inhibition” value was inactive: 14.7%.
For `COc1ccc(-c2ccc([C@H]3[C@H]4C=CC[C@@H](C)[C@@H]4C(=O)N3Cc3ccccc3)c(F)c2)cc1OC`, the Potency was inconclusive: 18.5 µM [inhibitor, single point].
For `COc1ccc(-c2cc(=O)oc3c(C)c(OCC(=O)NCC4CCC(C(=O)O)CC4)ccc23)cc1` (centres undefined), the Potency was active: 13.1 µM.
With `COc1ccc(C(=O)NC2CCN(CC(=O)N3CCCCC3)CC2)cc1` the “activity change, negative = inhibition” value was inactive: -29.9%.
For `COc1cc(NC(=O)c2cccc(Cl)c2)ccc1NC(=O)c1cccs1`, the “activity change, negative = inhibition” value was inactive: 30.2%.
In the case of `CCOC(=O)c1c(NC(=O)/C=C/c2ccco2)sc(C)c1C`, the Potency was active: 2.33 µM.
For `COC(=O)CN(C)C(=O)c1ccc(OC)c(OC2CCN(C(C)C)CC2)c1`, the Potency was inconclusive: 0.586 µM [inhibitor, full curve, poor fit].
With `COc1ccc(N(CC(=O)N2CCC(C(N)=O)CC2)S(=O)(=O)c2ccccc2)cc1` the “activity change, negative = inhibition” value was inactive: -25.6%.
For `O=c1c2cc(Br)ccc2nc(-c2cccc(C(F)(F)F)c2)n1O`, the Potency was inconclusive: 1.47 µM [inhibitor, partial curve, poor fit].
For `CC(C)(C)C(=O)c1cn(CC(=O)O)c2ccccc12`, the “activity change, negative = inhibition” value was inactive: 4.36%.
In the case of `COc1ccc(NC(=S)N2CCc3cc(OC)c(OC)cc3C2)cc1`, the “activity change, negative = inhibition” value was inactive: 6.7%.
For `Cc1ccc(-c2nc3ncccn3c2NC2CCCCC2)o1`, the Potency was inconclusive: 18.5 µM [inhibitor, single point].
In the case of `Cn1c(SCc2ccccc2)nnc1-c1ccc2c(c1)OCO2`, the “activity change, negative = inhibition” value was inactive: 35.6%.
In the case of `Cc1ccc2c(c1)N(CC(=O)OCC(=O)NCc1ccccc1)C(=O)CO2`, the “activity change, negative = inhibition” value was inactive: 21.7%.
In the case of `Cc1nnc(SCCC(=O)Nc2nc(-c3ccccc3)ns2)s1`, the Potency was inconclusive: 11.7 µM [inhibitor, single point].
For `CNC(=S)N(Cc1cccs1)Cc1cc2cc(OC)c(OC)cc2[nH]c1=O`, the Potency was inconclusive: 3.7 µM [inhibitor, single point].
For `OCCCCC#Cc1c(-c2ccsc2)sc2ccccc12`, the Potency was inconclusive: 10.4 µM [inhibitor, single point].
With `O=C(COc1ccc(Cl)cc1Br)Nc1nnc(C2CC2)s1` the “activity change, negative = inhibition” value was inactive: -16.2%.
In the case of `COc1c(S(=O)(=O)n2nc(C)cc2C)ccc(Cl)c1Cl`, the Potency was inconclusive: 10.4 µM [inhibitor, partial curve, poor fit].
For `Nc1nnc(CCCCCCCCCCc2nnc(N)s2)s1`, the Potency was inconclusive: 13.1 µM [inhibitor, single point].
With `O=C1N=C(N2CCCCC2)S/C1=C/C1=Cc2ccccc2OC1` the Potency was inconclusive: 2.94 µM [inhibitor, full curve, poor fit].
For `COc1ccc(C2N(c3ccc(OC)cc3)C(=S)N3CCCN23)cc1` (centres undefined), the Potency was inconclusive: 13.1 µM [inhibitor, single point].
With `O=C(CSc1nc2ccccc2o1)Nc1ccccc1` the Potency was inconclusive: 10.4 µM [inhibitor, single point].
With `C/C(=N\NC(=O)CSCc1ccc(Cl)cc1)c1ccc(NC(=O)c2ccccc2)cc1` the “activity change, negative = inhibition” value was inactive: 63.9%.
In the case of `COC(=O)c1cc2cc(OC)ccc2n1C`, the Potency was inconclusive: 0.465 µM [inhibitor, full curve, poor fit].
In the case of `NS(=O)(=O)c1cc(C(=O)N2CCNC(=O)C2)ccc1Cl`, the “activity change, negative = inhibition” value was inactive: -3.24%.
With `COc1ccccc1NC(=O)c1ccc(CSc2ncccn2)cc1` the Potency was inconclusive: 2.33 µM [inhibitor, full curve].
For `O=C(CCCN1C(=O)c2ccccc2C1=O)NCCN1C(=O)S/C(=C\c2cccs2)C1=O`, the Potency was inconclusive: 18.5 µM [inhibitor, single point].
